Results taken from paper PMC10252828.

T1: PSMA4-GFP (20S proteasomal subunit PSMA4 with GFP fused C-terminally) (D. discoideum) (UniProt P34119)
T1 sequence: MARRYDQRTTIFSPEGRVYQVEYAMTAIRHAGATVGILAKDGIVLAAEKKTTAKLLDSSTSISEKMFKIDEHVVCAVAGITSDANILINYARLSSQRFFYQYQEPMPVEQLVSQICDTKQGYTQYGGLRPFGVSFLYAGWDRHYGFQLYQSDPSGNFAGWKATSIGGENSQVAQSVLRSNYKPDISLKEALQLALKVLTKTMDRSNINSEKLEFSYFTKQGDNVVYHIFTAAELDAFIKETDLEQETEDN

B1: Uncharacterized protein Q55CG3 (DDB_G0271028), ubiquitinated at K18 (protein, UniProt Q55CG3 1-124)
chain: MSFSPTYGTPSKIIDSPKARSITTIKGRDLAWRYLLKALPKHHGENCHSCKEEESSMHIFFECKSIKQDIDSIYQKVCKDYNNIYHGPWSEKVLGKLLTPFSSNLIGAIMESIWCTGLLKLIYN
modifications: ubiquitinated lysine at 18
B2: Uncharacterized protein Q75JX9 (DDB_G0272214), ubiquitinated at K303 (protein, UniProt Q75JX9 1-630)
chain: MSTINHIESHFQASNQILHSNPSTLTFLENIDRLLNLTNSTYSGIQYTGIRGLNDFSCTSFKMLVIVFSKFRSMKSIFKLVNSPDEKVRSETLSLLWNFSAEESLKIKMFEERILNYIGCLFNYQDENLLLRTSAIIQNLCEFRFEKGAINQNQIKIVSQYKDLLSTIIQRSNHQDVRIKFLSCNTLCNLSMNEENRKLFQHMNIFQDVIGEFNKNYLNDIELPSSFNWVTLQPLLGLISSKDTQVQIFILYCVLSFSLSEKYNRRLWRVFANNHGIESLLKLKKSKIQLVSELSTKICTTLKIGKISYLHRQLNNNNNNKKQKIETLKHDSNECLENDISKLFNNENMFPDLIIKCKDKPNFYLHRSICVSRCPKLKIILDNQSINNDDSGDGRNGLKSSTGFEKEFLNLSGIGEKIISNINYGDRQIVQLELELYETFYEIAKWIYGIHSNSNLSSEVVAKSVMKIAYFLEVQDIIQECEYSLWHHIDLNNCSEILNLSLQCNSKQLENVTVEFILRNLDSIYFGNAKSDFLNHTFNQDLNINKLWYSGGTNNWTKLIKNHIINSYQLQQQKFKIEIHELNNQNNSNKNNNNNNINNNNNNLHFNNNININTNNIQHYSSYNDYDSYR
modifications: ubiquitinated lysine at 303
B3: 60S ribosomal protein L24, ubiquitinated at K70 (protein, UniProt Q54VN6 1-127)
chain: MKTSLCNYSEFKIYPARGMKFVRGDSKVFHFINTKVESLFFRKINPRDIRWSMVYRRIYKNTTTDVSAKKKARKTKKVERNIVGASLEVIQQKRAQKPEVKQAAAEQAKREIKEKKKAAAKKAAPKK
modifications: ubiquitinated lysine at 70
B4: ubiquilin (protein, UniProt Q9NIF3 1-523)
chain: MVKINIKSSTDNKFDVDVELGITVADFKKVIATKCSIPADQQRIIYSGRILKDHQTLDEIKIQDGHTVHLVKGAAPPPPPPVEQQVPTPSNTQPQGIPGVPQNINDMMNNPMIQEMFNSRMMDSLLDNPDIFRDMMMGNPEMREVLNNNPEMAQMLSDPRQLRQSLEMMRNPELMREMMRNADRAMINIENHPEGFNLLRRMYTDIQEPLMNAANQQAASQNQTNSNPIQTNTDANPNSQPLPNPWSTNSSSTSSNPTSSSPSSRPTTGSSTNTGASNPWASMFSGGGGGMGGGTNNTGTNNTGSTNNTGASNPWASMFGGGGGGMGGMGGMEGMLGMDPERVQQLLNNPVAQQMMQRLMSDPAMMQQMITMNPQLRQMMDSNPQLREAMNNPEFLNMMTNPENMNAMMQLQQAMGTLRNNGVFPGGMGGMGGMGGMGGMGGMGGMDFSQFGNMFGGMGGMGGMGNNNSSTTRPPVNQEPPEQRFRLQLEQLEELGFVDRAANISALTSTNGNINLAIDRLLR
B5: T-complex protein 1 subunit alpha, ubiquitinated at K468 (protein, UniProt Q55BM4 1-548)
chain: MSNKVLMIDGDRISGNEVRAQNVLAVTAIANIVKTSFGPIGLDKMLIDNIGSIVVTNDGATILQKIDIEHPAAKILVQLSELQDQEVGDGTTTVVILAAELLKRANELVARKVHPTVIISGFRLACTEAIKYINETLAVKVETLPKDFIVNIAKTSMSSKTINDDSDFFSKIVIEAITRVKTIDYKGDVKYPINAINILKAHGKSAKESTLVEGYALNCTVASEGMPKRIQGAKIAFLDFNLAKTKMKLGQKVVVTNVNDLEAIRDRENDIVKERISLIIKSGANVVLTTKGIDDLCLKYFVEAGCMAVRRCKKEDLKRIAKSCGGTVLITLANLEGEESFDTTALGIADEVVQDRLADDELIIVKNSNKKSASIILRGANELMLDEMERSIHDSLCIVKRTLESGTIVPGGGAVESALSIYLDNIAATMGSRKQLAISEFAESLLVVPKQLAVNAALDASDLVSKLKAYHHAAQTDPSKKSYAYSGLDLFNNKVRNNLEAGVLEPAIAKIKCIKFATESAITILRIDDKITLNPREQQGGDHEGHGH
modifications: ubiquitinated lysine at 468
B6: Eukaryotic translation initiation factor 4E, ubiquitinated at K870 (protein, UniProt B0G0Z1 1-977)
chain: MVNYFNLLDESDEEETNTTVKKDLTVETTAPTTTAVIEKENKVNNKVETSTAATSASSSTTGGIYVPPLRTSSEATNKAPPSQHIEIQFDVNKFNSEETLPENWILWYDTKKNSPQEGENNEYLQNVEKIGSFNSLKQFKNMWESLKTPLDVIGNISIFKEGIEPAWEDPKNKDGGKITINYLKDNGDFNFLLNAWFTLFTTIVFSTFENYEQSNGIVLSIRSWGASIHLWNNSSENDKVQSIRDVFQNILFVKYSKFSPHKTALDMNKNKDPNTKQINKNKKRDEHGFTIKPVNTLLSVHPTFSGAYEKQWVLPENNKPDKSLNIINTNTKPKKSSPYTVNTEERKESPDIINDSNNIINNNNNNNNNNSNNNENNNNSDNIENEQSEPIPEIPSGVNAWSTGILLGQPKVEESQKQLDEQPLVVKEDEKENEKEKEKEKEKEKEKEKEKEKIIEKKESKSAYSNAWGNSKIEQPTTTPSNNNNNNTTKSSNTPTPMINTNIEIPTGANAWATGKLLVKQEVVEDKQSLNNVDGAAVAASTTTITPPPVVTTENKEKKGKTEKKEKENKAPTVVITEKKDSSQSQEKPIKRVSSKEVLQEKPIKRVNSKEVLQSQPTESFWEEPTPITVVQQTQVPTKVPKKTIEPTPTPTPTPTPTPTPTPTQTTASTSTPTQVDTFSKVVKKDKSYKQTKTTVSSWGSPTSIADLIASQPEPTTVIVAPVATEVTIPTPTAAPISTNTATTVTTTTTTTSPTNTTAITPTATVVATVESEVKSGVLSIKENKKVETISSVNVQTKVEKDEWISIEKKPKTAKQLVDKKEKDETSPSLLNKGPKDNLLIRNLLVEEPLDYPSPIKPSQPIKNITKEVKKDIQPKENKKENQLKENKKENNNNNNNNNTNNISKENNTKKVSKSSTSNTLKNNNDNIVNSTNKQTNKSTTTTSEKDLSIISSSLIMNLVAVVSVLVLGFILKYLFV
modifications: ubiquitinated lysine at 870
B7: Uncharacterized protein Q55B20 (DDB_G0271470), ubiquitinated at K3 (protein, UniProt Q55B20 1-175)
chain: MAKLESQRLYFRELESNDDENLFELDSDQEVHQYLKSAVTNIDQCRAAIKGIQNQYKLNGIGRMAVIIKETNEFIGWAGLKIENNINGRQSYYDIGYRFIKRYWGKGYATEATQFFINYGFNILKIEKICAFADKDHIASRKVLEKSGLKFIEMFKDDDNNEEAWYEIDNPHSNV
modifications: ubiquitinated lysine at 3
B8: BolA-like protein, ubiquitinated at K19 (protein, UniProt Q86HT3 1-52)
chain: MSGGCGSMYKIEIVSPEFKGKSMINQHRKVNQILKSVIPSLHGLTLVTKSDE
modifications: ubiquitinated lysine at 19
B9: Uncharacterized protein Q55GK4 (DDB_G0267634), ubiquitinated at K827 (protein, UniProt Q55GK4 1-966)
chain: MDNTSNNNNNNNNNNNNNNNNNNNNNNNNNNNNNNNNNNNNNNNNNNNNNNNNNNNNNNNNNNINNINKNEELFWKVIKNKFLFTLIFLHIETTEWNIYNDHREFNTGINRKKFKNIKSFQWMVSKKQFQLLKYKIKIGEQINIDKNGIIELFKINNNNNNNNNNNNNNNNNNNNDLNNNNLNNLNNNKILKELLSIIIFKIENKEINNFDLLKIAIELNNIESIDILINEPFSLEITKSILEFSILNSNPIIINKLLKKNKEIIINQEFIEKLITLIYNNNNLNSKQKDENIKFILNNFKVSSFNNNNNDFNIIETILSIEITEKLIDLNFFNKKSINFENFENKFGKIKKYSIIEFNNKINQLINNNNNNNNNNNNNNNNNNNNNNNNNNNNNNNNNNNNNNNNNNNNNNNNNNNNNNNNNNNNNNIKELYNLFSKVSKEFYEIYYSLNYLNDPILDFKIILKYIFSSLDIEIFKLFLNNLKIKNENEIKEIKLISQKIKFKYMASIVQLPINHQSFLNFINLYTSNESIIQNNHFDETILKFIYMTSKSNHQYKESINNISSKCFNKFSFKLPNHFNQYLSNISFYNPIFIENFENDLNLLKRIEYCNNGKFQLNALDFLKQSFETKEFLINYFYSNQYKDFNESSFKLLILIISEDQNYFKNIKLNFNKFFNQSSLLLINSISIFNSKIIELMFKQNFNPIISNTNSFMDQFELTFNQYHDKINSINCKFSFKSNKIIYKSYSNTDENQIIKCIELFIEQFKIHFNHPNTLSIIINLLFKILIKIKNVSIEKLLNIYKLIKETISKNFQQHSLYHSLNYLRIKSPKFLKYILDKPFLTPLSLPIPNTMIYYYNIIQSKEIQNSINPNLFTFEFIFINSNFDEILEKLMFNFTFNSILNQNIQYDFNLLNSELKYCLEIRRFDLFFNYLKLINWNINNFKLSNSLLKISFKILNYNLFKNLIN
modifications: ubiquitinated lysine at 827
B10: Uncharacterized protein Q54ED9 (DDB_G0291538), ubiquitinated at K3 (protein, UniProt Q54ED9 1-181)
chain: MEKEKFEYSREGEKSSLTIDTGKLVQEFNSLPYEDIQGKKKIIEKLFGSVGDDVSIEHNFHCDLGFNIHVGNRFYAGYNFTVLDVAEVRIGDNCLIAPNVGIYTAGHYISPPEERHKTGYGIPITIGNNVWIGGHSVILPGVTIGDNSIIAAGSVVNKDVPKNTIVAGNPARKIKDITSKL
modifications: ubiquitinated lysine at 3

Target: T1, PSMA4-GFP (20S proteasomal subunit PSMA4 with GFP fused C-terminally) (D. discoideum)
Assay: affinity purification with mass spectrometry; GFP-trap beads, 2 h at 4 °C, with the soluble supernatant of lysates of AX2 and ATG16- cells expressing RFP-PSMD1 and PSMA4-GFP; cells without PSMA4-GFP as negative controls; three biological replicates; label-free quantification; GlyGly (K) and ubiquitination as variable modifications

binding | Molecule
binds | ubiquitin system component CUE domain-containing protein
binds | proteasome activator 28 (PSME3) (from UniProt Q967U1)
binds | 60S ribosomal protein L34, ubiquitinated at K106 (from UniProt Q54LV8 1-122)
binds | Uncharacterized protein Q54T94 (DDB_G0281913), ubiquitinated at K146 (from UniProt Q54T94 1-509)
binds | Uncharacterized protein Q54SZ7 (DDB_G0282111), ubiquitinated at K700 (from UniProt Q54SZ7 1-2562)
binds | Ubiquitin-60S ribosomal protein L40, ubiquitinated at K48 (from UniProt P14794 1-76)
binds | Uncharacterized protein Q54HN5 (DDB_G0289337), ubiquitinated at K3 (from UniProt Q54HN5 1-1528)
binds | Uncharacterized protein Q54KW5 (DDB_G0287061), ubiquitinated at K927 (from UniProt Q54KW5 1-1836)
binds | proteasome maturation protein homolog (POMP) (from UniProt Q55G18)
binds | B1
binds | B2
binds | B3
binds | B4
binds | B5
binds | B6
binds | B7
binds | B8
binds | B9
binds | B10

Results are given in words; binding and its absence hold for the method and conditions named. Binding seen in cells or lysates may run through a third protein. These calls come from enrichment with a bait or labelling near it, and not all partners need be listed. Sequences can lack the tags named with a protein.
